Reference: patent publication US20060199770A1 (priority 2003, published 2006)
Where no end group is shown, it is not given here.

Test: peptide synthesis
Conditions: conjugation step

Ac-CGSGVRGDFGSLAPRVARQL
conjugation yield: 79%
